# In US6858396B2, “Positively charged non-natural amino acids, methods of making and using thereof in peptides” (Medical University of South Carolina, priority 1996, dated 2005):
# Not every detail of the peptide structures is certain; ends, links or a residue may be inferred. Square brackets hold non-standard residues; d marks the D form. Peptide text beside a SMILES is read from it. hLys = NCCCCC[C@H](N)C(=O)O
# Test system: NT receptor
# Experiment: Hypothermia in rats after I.V. or I.C. injection of NT(8-13) derivatives (brain uptake across the BBB)
# Format: in vivo
# Text: Peptides 36, 39, 42, and 45 are NT(8-13) with non-natural amino acids 32-35 (Scheme L), respectively, were substituted for the Arg^(8) residue.
smiles,measurement,setting,value
CC[C@H](C)[C@H](NC(=O)[C@H](Cc1ccc(O)cc1)NC(=O)[C@@H]1CCCN1C(=O)[C@H](CCCNC(=N)N)NC(=O)[C@@H](N)CCCCCN)C(=O)N[C@@H](CC(C)C)C(=O)O [Peptide 36] (H-[hLys]RPYIL-OH),"hypothermia, dose dependence after I.V. administration",I.V. (FIG. 1B),dose-dependent hypothermia
same,activity (hypothermia) / uptake into brain after I.V. injection,"I.V., 1.0 mg doses (FIG. 1A)",significant uptake into brain
